## Results from one PubChem assay

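Reporter enzyme signal from engineered HeLa cells, measuring how much glucocorticoid receptor signaling is switched on after an 18 h treatment. Compounds were tested as a dilution series; the record's dose columns span about 0.00043 to 54,000 µM. The value is a fitted half-maximal activation concentration (AC50), so a lower number means a more potent agonist. Calls come from the dose-curve shape; inconclusive marks weak, poorly fitted, top-dose-only or side-signal effects, and all rows here are inconclusive.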

Values are in µM. All entries here are filed as inconclusive. Only part of the assay is shown, chiefly results filed as inconclusive. Potencies fitted to partial, single-point or poorly fitting curves are rough. Some entries filed as inconclusive have a full curve. The first word of each remark tells which way the curve ran; it can be opposite to the aim of the assay.

Result for c1ccc(N=Nc2ccccc2)cc1 was Potency 14.13 µM (side channel, falling, partial curve, poor fit).
Result for CC(C)OB(OC(C)C)OC(C)C was Potency 0.0025 µM (side channel, falling, full curve, poor fit).
Result for O=C(Oc1ccccc1)c1ccccc1O was Potency 0.3162 µM (side channel, rising, full curve, poor fit).
Result for O=S(=O)(O)c1cc(S(=O)(=O)O)c2c(N=Nc3ccccc3)c(O)ccc2c1 was Potency 0.0071 µM (side channel, falling, full curve, poor fit).
Result for CC(C)(COCC1CO1)COCC1CO1 (configuration not stated) was Potency 1.122 µM (side channel, falling, full curve, poor fit).
Result for NS(=O)(=O)c1cc2c(cc1Cl)NCNS2(=O)=O was Potency 50.12 µM (side channel, falling, single point).
Result for N#CSCSc1nc2ccccc2s1 was Potency 35.48 µM (side channel, rising, partial curve, poor fit).
Result for CCCCC(CC)COC(=O)c1ccccc1C(=O)O (configuration not stated) was Potency 0.0063 µM (side channel, falling, full curve, poor fit).
Result for COc1ccc(/C(=C/C(=O)N2CCOCC2)c2ccc(Cl)cc2)cc1OC was Potency 0.0071 µM (side channel, rising, full curve, poor fit).
Result for NC(=S)Nc1ccccc1 was Potency 0.0794 µM (side channel, falling, full curve, poor fit).
Result for CC(=O)O[C@]1(C(C)=O)CC[C@H]2[C@@H]3C[C@H](C)C4=CC(=O)CC[C@]4(C)[C@H]3CC[C@@]21C was Potency 0.2818 µM (activator, full curve).
Result for C=C(C)C(=O)OCCC[Si](OC)(OC)OC was Potency 19.95 µM (side channel, rising, partial curve, poor fit).
Result for CCOP(=O)(OCC)SCSCC was Potency 28.18 µM (side channel, falling, single point).

Some entries from above, unchanged:

| Compound | Potency (µM) | curve |
|---|---|---|
| `CCOP(=O)(OCC)SCSCC` | 28.18 | side channel, falling, single point |
| `N#CSCSc1nc2ccccc2s1` | 35.48 | side channel, rising, partial curve, poor fit |

The results are deposited in PubChem (AID588532; NCATS, 2011).